Assay results reported in PubChem BioAssay AID1688 (National Center for Advancing Translational Sciences (NCATS), 2009).
The whole screen tested about 220,000 compounds, of which about 2,400 (1.1%) were called active. The inconclusive results got no clear call from the source; some entries with a clear call stand among them for comparison. Calls follow the shape of the dose curve; as a rule, active = well fitted inhibition curve with a large enough effect; inconclusive = small, poorly fitted or top-dose-only effect, or effect the other way; inactive = no such curve, though single readings can be large or run the other way. Where the call is inconclusive, the potency comes from a doubtful curve fit.

Test: qHTS Multiplex Assay to Identify Dual Action Probes in a Cell Model of Huntington: Aggregate Formation (GFP); also: nearly all actives have a fitted effect of over 60% in size
Conditions: PC12 HttQ103-GFP aggregates, Acumen cytometry, 40 h; activity change, negative = inhibition: at 46.1 µM (top of the series) unless noted
Procedure, shortened: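 Read-out: GFP aggregate count by laser scanning cytometer (488 nm excitation, 500-530 nm emission, 1–25 µm objects >6 SD above background). Cells: PC12, inducible HTTex1-Q103-GFP, 100 nM tebufenozide; compounds titrated.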
% is scaled to controls: 0 for no effect and ±100 for the full control effect; potency is read from the fitted curve at half-maximal effect.

Structure (SMILES) | Potency | activity change, negative = inhibition
COc1ccc(-c2csc(-c3cccs3)n2)cc1OC | inconclusive: 5.62 µM [inhibitor, single point] | –
O=C(CCc1ccccc1)NC(c1cccs1)c1cc(Cl)c2cccnc2c1O (configuration not stated) | – | inactive: -13.4% [at 9.22 µM]
O=[N+]([O-])c1ccc(/C=N/n2cnc3ccccc32)s1 | active: 15.8 µM | –
Cn1c(=O)c2c(nc(NCc3ccc4c(c3)OCO4)n2Cc2ccc(F)cc2)n(C)c1=O | inconclusive: 11.2 µM [inhibitor, partial curve] | –
CCN1CCN(c2nc(SC)nc3sc4c(c23)CC(C)(C)OC4)CC1 | inconclusive: 5.62 µM [activator, partial curve] | –
COc1ccc(Br)cc1C(=O)Nc1ccc(Cc2ccncc2)cc1 | inconclusive: 15.8 µM [inhibitor, single point] | –
Cc1ccc2c(c1)Oc1ccc(NC(=O)CCl)cc1C(=O)N2 | active: 25.1 µM | –
CCc1cc(=O)oc2c(C)c(OCC(=O)N3CCCc4ccccc43)ccc12 | inconclusive: 11.2 µM [inhibitor, single point] | –
Fc1ccc2[nH]c3c(N4CCN(c5ccccc5)CC4)ncnc3c2c1 | active: 22.4 µM | –
COc1ccccc1N(CC(=O)N/N=C/c1c(O)ccc2ccccc12)S(C)(=O)=O | inconclusive: 1.41 µM [inhibitor, full curve] | –
Cc1csc(SCC(=O)c2c(N)n(CC(C)C)c(=O)n(C)c2=O)n1 | inconclusive: 10 µM [inhibitor, partial curve, poor fit] | –
CCC1(CC)C(=O)C(C)(C)C(=O)OC1c1ccccn1 (configuration not stated) | inconclusive: 3.16 µM [inhibitor, single point] | –
Cc1ccc(NC(=S)NNC(=O)c2ccc(N3CCOCC3)c([N+](=O)[O-])c2)cc1Cl | inconclusive: 35.5 µM [inhibitor, single point] | –
Clc1cccc(-c2nc3nc4ccccc4nc3n2Cc2ccco2)c1 | inconclusive: 15.8 µM [activator, partial curve] | –
O=C(c1ccc(Cl)cc1)C1CCN(C(=O)NC2CCCCC2)CC1 | inconclusive: 17.8 µM [inhibitor, partial curve] | –
CC1(C)CC(N=c2cc(-c3ccccc3)oc3ccc(Cl)cc23)CC(C)(C)N1 | inconclusive: 35.5 µM [inhibitor, single point] | –
COCC(C)NC(=O)CSc1nc2ccccc2n1CCc1ccccc1 (configuration not stated) | inconclusive: 17.8 µM [inhibitor, single point] | –
COc1cc(C(=O)Oc2c(CN3CCOCC3)cc(Cl)c3cccnc23)cc(OC)c1OC | inconclusive: 10 µM [inhibitor, partial curve] | –
COc1ccc2c(c1)-c1nc(/N=C/c3cccc(OC)c3O)sc1CC2 | – | inactive: -8.03%
COc1ccc(NS(=O)(=O)c2ccc3nc(COc4ccc(Cl)c(C)c4)[nH]c3c2)cc1 | inconclusive: 25.1 µM [inhibitor, single point] | –
N#CC(c1ccc(Cl)cc1)c1ccc2c(C(F)(F)F)cc(C(F)(F)F)nc2n1 (configuration not stated) | inconclusive: 5.62 µM [inhibitor, single point] | –
CCOC(=O)c1nnn(-c2nonc2N)c1CN1CCCCCC1 | – | inactive: 0.404% [at 9.22 µM]
COc1cccc(Nc2nc3ccccc3nc2NS(=O)(=O)c2cccs2)c1 | active: 14.1 µM | –

Looked up by compound from the entries so far (two):
Structure (SMILES) | Potency | activity change, negative = inhibition
COc1ccc(NS(=O)(=O)c2ccc3nc(COc4ccc(Cl)c(C)c4)[nH]c3c2)cc1 | inconclusive: 25.1 µM [inhibitor, single point] | –
COc1cccc(Nc2nc3ccccc3nc2NS(=O)(=O)c2cccs2)c1 | active: 14.1 µM | –

(further entries)

Structure (SMILES) | Potency | activity change, negative = inhibition
CCn1c(=O)cc(OCC(=O)NCCc2ccc(OC)c(OC)c2)c2ccccc21 | inconclusive: 25.1 µM [activator, single point] | –
O=C(CNC(=O)c1ccc2c(c1)OCCO2)N/N=C/c1cccc(Br)c1 | inconclusive: 7.08 µM [inhibitor, full curve, poor fit] | –
O=C(CSCc1ccc(C(=O)O)cc1)Nc1ccccc1 | – | inactive: 29.4% [at 9.22 µM]
COc1ccc(-c2c(C)[nH]n3c(=O)c(Cc4ccccc4)c(C)nc23)cc1OC | inconclusive: 15.8 µM [inhibitor, single point] | –
CC(C)OC(=O)NCCOC(=O)Nc1ccc(Cl)c(Cl)c1 | active: 7.08 µM | –
Oc1ccc(N2CCN(C(c3cccs3)c3nnnn3CCc3ccccc3)CC2)cc1 (configuration not stated) | – | inactive: -23.7%
Cc1cc(C)c(S(=O)(=O)n2ccc3ccccc32)c(C)c1 | active: 10 µM | –
CCc1nc(N[C@@H](CC(C)C)C(=O)O)c2oc3ccccc3c2n1 | – | inactive: 6.32%
COC(=O)c1ccc(-n2ccnc2)cc1 | inconclusive: 0.447 µM [inhibitor, partial curve] | –
CCn1c(=O)c(C(=O)Nc2nc3ccccc3[nH]2)c(O)c2ccccc21 | active: 10 µM | –
Cc1cc(C)n(CCC(=O)N/N=C/c2c(O)ccc3ccccc23)n1 | inconclusive: 0.0794 µM [inhibitor, full curve, poor fit] | –
O=C(CCC(=O)N1CCN(c2ccc(O)cc2)CC1)c1ccc(Br)cc1 | – | inactive: 36.1% [at 9.22 µM]
COc1ccc(OC)c(-c2nc3c(C)n[nH]c(=O)c3[nH]2)c1 | active: 12.6 µM | –
CCOc1ccc(NC(=O)NCc2ccco2)cc1 | – | inactive: -14.8%
O=C(NC(NC(=S)Nc1ccccc1Cl)C(Cl)(Cl)Cl)c1cccc(Cl)c1 (configuration not stated) | inconclusive: 35.5 µM [inhibitor, single point] | –
O=[N+]([O-])c1ccc(NC(=S)N2CCN(c3ccccc3)CC2)cc1 | inconclusive: 14.1 µM [inhibitor, single point] | –
COc1ccc(OC)c(NC(=O)Nc2nnc(N3CCC(C)CC3)s2)c1 | inconclusive: 2.51 µM [activator, full curve, poor fit] | –
COc1ccc(S(=O)(=O)Cc2ccc(C(=O)NCc3ccc(F)cc3)o2)cc1 | inconclusive: 35.5 µM [inhibitor, single point] | –
C[C@@H](C(=O)Nc1nc(-c2ccccn2)cs1)N1C(=O)C2CCCCC2C1=O (some centres not stated) | inconclusive: 35.5 µM [inhibitor, single point] | –
CCOc1ccc(S(=O)(=O)Nc2cc(Cl)ccc2O)cc1 | active: 22.4 µM | –
CCCCOC(=O)C[N+](C)(C)CCOC1CC2CCC1(C)C2(C)C (configuration not stated) | inconclusive: 20 µM [inhibitor, single point] | –
COc1cc2c(cc1O)CCN[C@@]21CS[C@H]2c3c(OC(C)=O)c(C)c4c(c3C(COC1=O)N1C2C2c3c(cc(C)c(OC)c3O)CC([C@@H]1O)N2C)OCO4 (some centres not stated) | active: 0.0025 µM | –
C=CCNc1nc(Nc2ccc([N+](=O)[O-])cc2)nc(OC)n1 | inconclusive: 11.2 µM [inhibitor, single point] | –

Structure (SMILES) | Potency | activity change, negative = inhibition
CCCN(C(=O)CSc1nnnn1C)C1CCS(=O)(=O)C1 (configuration not stated) | inconclusive: 0.562 µM [inhibitor, single point] | –
O=C(/C=C/c1ccncc1)c1ccc2c(c1)OCCO2 | – | inactive: -13.1% [at 9.22 µM]
COc1ccc(C)cc1Nc1cc(C)nc2nc(C)nn12 | – | inactive: 11%
Cc1ccc(C(C(=O)NC2CCCC2)N(C(=O)Cc2cccs2)c2ccc(C)c(C)c2)o1 (configuration not stated) | active: 20 µM | –
COC(=O)C1=C(C)N=C2SC(C#N)=C(N)N2C1c1ccc(OC)cc1 (configuration not stated) | inconclusive: 1.12 µM [activator, full curve, poor fit] | –
Cc1c(C(=O)Nc2nc3ccccc3[nH]2)oc2ccccc12 | inconclusive: 3.98 µM [inhibitor, single point] | –
Cc1ccc(-c2noc(CN(C(=O)CCCCCN3C(=O)c4ccccc4C3=O)C(C)C)n2)cc1 | inconclusive: 35.5 µM [inhibitor, single point] | –
COc1ccccc1S(=O)(=O)Cc1ccc(C(=O)N2CCN(c3ccccc3)CC2)o1 | inconclusive: 1.26 µM [inhibitor, single point] | –
CCN(C(=S)Nc1cc(S(=O)(=O)N2CCOCC2)ccc1Cl)c1cccc2ccccc12 | inconclusive: 3.16 µM [inhibitor, partial curve] | –
CC1(C)CC(NC(=O)CC(c2ccccc2)c2ccccc2)CC(C)(C)N1 | inconclusive: 31.6 µM [inhibitor, single point] | –
Cc1ccc(-n2c(-c3c(-c4ccccc4)noc3C)n[nH]c2=S)cc1 | inconclusive: 7.94 µM [activator, partial curve, poor fit] | –
CC1CCC/C(=N\NC(=S)NCc2ccccc2)C1 (configuration not stated) | inconclusive: 15.8 µM [inhibitor, single point] | –
O=C(/C=C/c1ccco1)Nc1sc2c(c1C(=O)O)CCC2 | inconclusive: 35.5 µM [inhibitor, single point] | –
CCOC(=O)C1CCCN(c2cc(C)nc3cc(-c4ccc(Cl)cc4)nn23)C1 (configuration not stated) | inconclusive: 35.5 µM [activator, single point] | –
c1cc(-c2cccs2)nc(-c2cccs2)c1 | – | inactive: -13.6%
Cc1cc(C(=O)CSc2nnc(-c3cccs3)o2)c(C)n1-c1ccccc1 | inconclusive: 35.5 µM [inhibitor, partial curve] | –
Cc1sc(NC(=O)CSc2nnnn2C2CCCCC2)c(C#N)c1C | inconclusive: 15.8 µM [inhibitor, single point] | –
O=c1[nH]c2cc3c(cc2cc1C(c1nnnn1C1CCCCC1)N1CCSCC1)OCCO3 (configuration not stated) | inconclusive: 12.6 µM [inhibitor, single point] | –
OCCNc1nc(-c2ccccc2)nc2ccccc12 | – | inactive: -2.37%
O=c1[nH]c(CN2CCN(S(=O)(=O)c3ccc4c(c3)OCCO4)CC2)nc2sc3c(c12)CCCC3 | inconclusive: 5.62 µM [inhibitor, single point] | –
COc1cccc(CNc2ncnc3cc(OC)c(OC)cc23)c1 | inconclusive: 35.5 µM [inhibitor, single point] | –
